Experimental data as given in the supplement of paper PMC7646827.
Structures can show the parent of a compound that is named as a salt. Many values rest on one well or one pass, so single values are uncertain.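 All cells are established human bladder cancer lines, one derived from a patient-derived xenograft. A luminescent ATP assay measured viability as percent inhibition relative to vehicle across seven dilutions. The paper rates scores above 59 very active, 30–59 active, 21–29 semi-active, 9–20 low active, below 9 inactive.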

How the values were obtained:
Test in all cases: drug sensitivity score DSS3 (score 0-100); higher = more sensitive; extreme values may be limits of the assay
Settings in all cases: culture: 3D, ultra-low attachment; treatment time: 5 days
5637 = test system: 5637
BC8149 = test system: BC8149
TCCSUP = test system: TCCSUP
UM-UC-12 = test system: UM-UC-12
UM-UC-14 = test system: UM-UC-14
UM-UC-17 = test system: UM-UC-17
UM-UC-18 = test system: UM-UC-18
UM-UC-1 = test system: UM-UC-1
UM-UC-3 = test system: UM-UC-3
J82 = test system: J82
SCaBER = test system: SCaBER
SW780 = test system: SW780
UM-UC-5 = test system: UM-UC-5
UM-UC-6 = test system: UM-UC-6
UM-UC-9 = test system: UM-UC-9
UM-UC-15 = test system: UM-UC-15
T-24 = test system: T-24

Structure (SMILES) | drug sensitivity score DSS3 5637 | drug sensitivity score DSS3 (BC8149) | drug sensitivity score DSS3 (TCCSUP) | drug sensitivity score DSS3 (UM-UC-12) | drug sensitivity score DSS3 (UM-UC-14) | drug sensitivity score DSS3 (UM-UC-17) | drug sensitivity score DSS3 (UM-UC-18) | drug sensitivity score DSS3 (UM-UC-1) | drug sensitivity score DSS3 (UM-UC-3) | drug sensitivity score DSS3 (J82) | drug sensitivity score DSS3 (SCaBER) | drug sensitivity score DSS3 (SW780) | drug sensitivity score DSS3 (UM-UC-5) | drug sensitivity score DSS3 (UM-UC-6) | drug sensitivity score DSS3 (UM-UC-9) | drug sensitivity score DSS3 (UM-UC-15) | drug sensitivity score DSS3 (T-24)
Oc1nc(-c2ccc(C(F)(F)F)cc2)nc2c1CSCC2 [XAV-939] (max dose 10000 nM) | 30 | 11.6 | 10.7 | 2.88 | 20.5 | 2.32 | 20.1 | 4.05 | 0 | – | – | – | – | – | – | – | –
CC(C)n1nc(-c2ccc3oc(N)nc3c2)c2c(N)ncnc21 [INK 128 (MLN0128), TAK228] (max dose 10000 nM) | 41.7 | 61.6 | 60.1 | 42.4 | 45.2 | 32.2 | 46.4 | 53.1 | 41.6 | 0 | 48 | 30.9 | 51.9 | 46.7 | 41.1 | – | –
COc1cc2ncnc(Nc3ccc(O)cc3)c2cc1OC [JANEX-1] (max dose 10000 nM) | 0.549 | – | 0.295 | 0 | 0 | 0 | 0 | – | 0.354 | 0 | 0 | 0 | 0 | 0 | 0 | 16.6 | –
Cc1sc2c(c1C)C(c1ccc(Cl)cc1)=N[C@@H](CC(=O)OC(C)(C)C)c1nnc(C)n1-2 [(+)-JQ1] (max dose 10000 nM) | 5.43 | – | 18.4 | 29.5 | 17.5 | 13.2 | 0 | – | 0 | 0 | 0 | 0 | 10.9 | 14.7 | 32.6 | 0 | –
Nc1ccn([C@@H]2O[C@H](CO)[C@@H](O)C2(F)F)c(=O)n1 [Gemcitabine] (max dose 10000 nM) | 63 | 57.8 | 76.9 | 52.9 | 66.3 | 35 | 46.6 | 74 | 47.2 | 30.3 | 10.2 | 33.5 | – | 50.3 | 28.4 | 2 | –
C/C(=N\NC(=O)c1cccc(S(=O)(=O)N2CCOCC2)c1)c1cc(Cl)ccc1O [SP2509] (max dose 10000 nM) | 0 | 0.0794 | 1.14 | 0 | – | 0.383 | 0 | 0 | 0.332 | 0 | 0 | 0 | 0 | 0 | 0.00194 | 0 | –
C=C1C[C@@H]2CC[C@@]34C[C@H]5O[C@H]6[C@@H](O3)[C@H]3O[C@H](CC[C@@H]3O[C@H]6[C@H]5O4)CC(=O)C[C@@H]3[C@@H](OC)[C@@H](C[C@H](O)CN)O[C@H]3C[C@H]3O[C@@H](CC[C@@H]1O2)C[C@@H](C)C3=C [Eribulin Mesylate] (max dose 10000 nM) | 61 | 21.4 | 65.3 | 51.8 | 74.3 | 78.4 | 0 | 33.8 | 47.3 | 0 | 0 | 75.2 | – | 56.7 | 15.9 | 0 | –
CN(C)C(=O)c1cc2cnc(Nc3ccc(N4CCNCC4)cn3)nc2n1C1CCCC1 [Ribociclib] (max dose 10000 nM) | 0 | 0 | 2.19 | 0 | 0.316 | 0.734 | 0.0398 | 0 | – | 0 | 0 | 0 | 0 | 0 | 0 | 0 | 0
COc1cc2c(cc1OC(C)C)[C@H](c1ccc(Cl)cc1)N(c1ccc(N(C)C[C@H]3CC[C@H](N4CCN(C)C(=O)C4)CC3)cc1)C(=O)C2 [NVP-CGM097] (max dose 10000 nM) | 0.929 | 0 | 0.155 | 4.86 | 0 | 0 | 0.0552 | 0 | – | 0 | 1.48 | 0.121 | 0 | 0 | 0 | 0 | 0.678
O=C(/C=C/c1cccc(S(=O)(=O)Nc2ccccc2)c1)NO [Belinostat (PXD101)] (max dose 10000 nM) | 4.79 | 5.55 | 8.75 | 4.35 | 1.29 | 4.19 | 8.66 | 0 | – | 6.89 | 1.63 | 0 | 1.63 | 1.15 | 1.2 | 4.01 | 2.03
Nc1nc(OCc2cc(Br)cs2)c2[nH]cnc2n1 [Lomeguatrib] (max dose 10000 nM) | 0 | 0 | 0 | 0 | 0 | 0 | 0 | 0 | – | 0 | 0 | 0 | 0 | 0 | 0 | 0 | 0
COc1ccc(-c2cc3nccn3c(Nc3ncccc3C(N)=O)n2)cc1OC [BAY-61-3606] (max dose 10000 nM) | 0 | 0.0468 | 0.175 | 0 | 1.8 | 0 | 0 | 0.53 | – | 0 | 0 | 0 | 0.116 | 0 | 0 | 0 | 0
C[C@@H](N)[C@H]1CC[C@H](C(=O)Nc2ccncc2)CC1 (max dose 10000 nM) | 0 | 0 | 0 | 0 | 0 | 0 | 0 | 0 | – | 0 | 0 | 0 | 0 | 0 | 0 | 0 | 0
C[C@@H]1CCN(C(=O)CC#N)C[C@@H]1N(C)c1ncnc2[nH]ccc12 (max dose 10000 nM) | 0 | 0 | 0 | 0 | 0 | 0 | 0 | 0 | – | 0 | 0 | 0 | 0 | 0 | 0 | 0 | 0
Nc1cc(F)ccc1NC(=O)/C=C/c1cnn(C/C=C/c2ccccc2)c1 [RGFP966] (max dose 10000 nM) | 0 | 0 | 0.00824 | 0 | 0 | 0 | 0.138 | 0 | – | 0 | 0 | 0 | 0 | 0 | 0 | 0 | 0
CC[C@H](C)n1cc(C)c2c(C(=O)NCc3c(C)cc(C)[nH]c3=O)cc(-c3ccc(N4CCNCC4)nc3)cc21 [GSK126] (max dose 10000 nM) | 0.224 | 0 | 0.809 | 0.436 | 0 | 0 | 0 | 0.00643 | – | 0 | 0 | 0 | 0 | 0 | 0 | 0 | 0
CC1CNc2c(cccc2S(=O)(=O)N[C@@H](CCCNC(=N)N)C(=O)N2CC[C@@H](C)C[C@@H]2C(=O)O)C1 (stereo partly specified) [Argatroban Monohydrate] (max dose 10000 nM) | 3.15 | 1.16 | 2.42 | 0 | 3.81 | 0.673 | 8.16 | 1.88 | – | 0.601 | 0.996 | 0.251 | 0 | 6.78 | 0 | 0 | 0.0835
COc1cc(OC)cc(-c2cc3cnc(N)nc3nc2NC(=O)NC(C)(C)C)c1 (max dose 10000 nM) | 0 | 0 | 2.15 | 0 | 0.000737 | 0 | 0 | 0 | – | 0 | 0.657 | 0 | 0 | 0 | 0 | 0 | 0
CC(C)c1onc(-c2c(Cl)cccc2Cl)c1COc1ccc(/C=C/c2cccc(C(=O)O)c2)c(Cl)c1 [GW4064] (max dose 10000 nM) | 3.39 | 0 | 0 | 0 | 0 | 1.88 | 0 | 0 | – | 0 | 0 | 0.488 | 0 | 0 | 0 | 0 | 0
CC#CCn1c(N2CCC[C@@H](N)C2)nc2c1c(=O)n(Cc1nc(C)c3ccccc3n1)c(=O)n2C [Linagliptin] (max dose 10000 nM) | 0 | 0.112 | 1.11 | 0 | 0 | 0.00907 | 0 | 0.575 | – | 0 | 0 | 0 | 0 | 0.0309 | 0 | 0 | 0.655
COc1cc(OC)cc(N(CCNC(C)C)c2ccc3ncc(-c4cnn(C)c4)nc3c2)c1 [erdafitinib] (max dose 10000 nM) | 0 | 3.45 | 11.3 | 0 | 0 | 0 | 0 | 0 | – | 0 | 0 | 0 | 0 | 0 | 0 | 19.2 | 0

2 of these compounds in a different format.
Structure (SMILES)	drug sensitivity score DSS3 5637	drug sensitivity score DSS3 (BC8149)	drug sensitivity score DSS3 (TCCSUP)	drug sensitivity score DSS3 (UM-UC-12)	drug sensitivity score DSS3 (UM-UC-14)	drug sensitivity score DSS3 (UM-UC-17)	drug sensitivity score DSS3 (UM-UC-18)	drug sensitivity score DSS3 (UM-UC-1)	drug sensitivity score DSS3 (UM-UC-3)	drug sensitivity score DSS3 (J82)	drug sensitivity score DSS3 (SCaBER)	drug sensitivity score DSS3 (SW780)	drug sensitivity score DSS3 (UM-UC-5)	drug sensitivity score DSS3 (UM-UC-6)	drug sensitivity score DSS3 (UM-UC-9)	drug sensitivity score DSS3 (UM-UC-15)	drug sensitivity score DSS3 (T-24)
COc1cc2ncnc(Nc3ccc(O)cc3)c2cc1OC [JANEX-1] (max dose 10000 nM)	0.549	–	0.295	0	0	0	0	–	0.354	0	0	0	0	0	0	16.6	–
Cc1sc2c(c1C)C(c1ccc(Cl)cc1)=N[C@@H](CC(=O)OC(C)(C)C)c1nnc(C)n1-2 [(+)-JQ1] (max dose 10000 nM)	5.43	–	18.4	29.5	17.5	13.2	0	–	0	0	0	0	10.9	14.7	32.6	0	–
